No constants are given. Whether binding was seen depends on the method and setting. Binding seen in cells or lysates may run through a third protein. Binding calls can cover weak binding; strength is not graded here.

By UniProt entry, the sequences of proteins in these tests, tags left out. Where a name states a change or a piece, a line headed by the entry shows the natural chain unless it says otherwise. Residues count along the entry.
UniProt P11686: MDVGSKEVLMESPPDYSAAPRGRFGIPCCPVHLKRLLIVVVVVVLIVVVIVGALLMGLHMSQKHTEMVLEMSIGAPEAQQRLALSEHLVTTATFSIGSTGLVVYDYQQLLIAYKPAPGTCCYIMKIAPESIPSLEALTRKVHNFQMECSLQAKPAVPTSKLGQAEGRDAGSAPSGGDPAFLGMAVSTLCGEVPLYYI
UniProt Q9QYI6, residues 24-222: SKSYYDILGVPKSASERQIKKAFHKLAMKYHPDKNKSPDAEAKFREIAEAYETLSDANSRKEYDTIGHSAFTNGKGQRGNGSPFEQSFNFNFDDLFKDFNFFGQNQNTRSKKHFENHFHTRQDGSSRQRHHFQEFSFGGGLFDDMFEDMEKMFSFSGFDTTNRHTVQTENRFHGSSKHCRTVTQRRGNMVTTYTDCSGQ

Assay [1] has as its target 3HA-tagged SP-C L188Q (human) (UniProt P11686). The assay can be described thus: co-IP; 293T cells co-expressing 3HA-tagged L188Q and untagged wild-type SP-C, 35S pulse-labelled for 30 min; lysates immunoprecipitated with anti-HA; reducing SDS-PAGE and phosphorimaging.
Assay [2] addresses SP-C Δ exon 4 (human) (UniProt P11686). The experiment in a line: co-IP; 293T cells co-transfected with an SP-C construct and one co-chaperone (BiP co-transfected in the GRP170 experiments; 20 mM NEM in wash and lysis for ERdj5); NP-40 lysates 24 h after transfection, immunoprecipitated with anti-SP-C overnight at 4 °C, Protein A agarose, washed with buffer containing 0.4 M NaCl; co-chaperones detected by western blot; in Fig. 4 signals normalised to SP-C and expressed as percent of parental L188Q.

Assay [3] addresses SP-C L188Q with the site 3 mutation (human) (UniProt P11686). The assay is described as above.
The target in assay [4] is SP-C L188Q (human) (UniProt P11686). The assay is described as above.
Substrate in assay [5]: SP-C L188Q (human) (UniProt P11686)
The assay can be described thus: co-IP; 293T cells co-transfected with an SP-C construct and one co-chaperone (BiP co-transfected in the GRP170 experiments; 20 mM NEM in wash and lysis for ERdj5); NP-40 lysates 24 h after transfection, immunoprecipitated with anti-SP-C overnight at 4 °C, Protein A agarose, washed with buffer containing 0.4 M NaCl; co-chaperones detected by western blot; in Fig. 4 signals normalised to SP-C and expressed as percent ….

Substrate in assay [6]: SP-C Δ exon 4 (human) (UniProt P11686)
The assay is described as above.

Substrate in assay [7]: SP-C L188Q with the site 3 mutation (human) (UniProt P11686)
The assay is described as above.

For the molecule “wild-type surfactant protein C (SP-C) proprotein, untagged (from UniProt P11686)”, in assay [1], the binding entry is reported as “binds”.

As to “ERdj4-3HA (mouse) (from UniProt Q9QYI6 24-222)”, the binding result in assay [2], in assay [3] and in assay [4] was “binds” each time.

B1: GRP170 (human) (protein, UniProt Q9Y4L1 33-999)
chain: LAVMSVDLGSESMKVAIVKPGVPMEIVLNKESRRKTPVIVTLKENERFFGDSAASMAIKNPKATLRYFQHLLGKQADNPHVALYQARFPEHELTFDPQRQTVHFQISSQLQFSPEEVLGMVLNYSRSLAEDFAEQPIKDAVITVPVFFNQAERRAVLQAARMAGLKVLQLINDNTATALSYGVFRRKDINTTAQNIMFYDMGSGSTVCTIVTYQMVKTKEAGMQPQLQIRGVGFDRTLGGLEMELRLRERLAGLFNEQRKGQRAKDVRENPRAMAKLLREANRLKTVLSANADHMAQIEGLMDDVDFKAKVTRVEFEELCADLFERVPGPVQQALQSAEMSLDEIEQVILVGGATRVPRVQEVLLKAVGKEELGKNINADEAAAMGAVYQAAALSKAFKVKPFVVRDAVVYPILVEFTREVEEEPGIHSLKHNKRVLFSRMGPYPQRKVITFNRYSHDFNFHINYGDLGFLGPEDLRVFGSQNLTTVKLKGVGDSFKKYPDYESKGIKAHFNLDESGVLSLDRVESVFETLVEDSAEEESTLTKLGNTISSLFGGGTTPDAKENGTDTVQEEEESPAEGSKDEPGEQVELKEEAEAPVEDGSQPPPPEPKGDATPEGEKATEKENGDKSEAQKPSEKAEAGPEGVAPAPEGEKKQKPARKRRMVEEIGVELVVLDLPDLPEDKLAQSVQKLQDLTLRDLEKQEREKAANSLEAFIFETQDKLYQPEYQEVSTEEQREEISGKLSAASTWLEDEGVGATTVMLKEKLAELRKLCQGLFFRVEERKKWPERLSALDNLLNHSSMFLKGARLIPEMDQIFTEVEMTTLEKVINETWAWKNATLAEQAKLPATEKPVLLSKDIEAKMMALDREVQYLLNKAKFTKPRPRPKDKNGTRAEPPLNASASDQGEKVIPPAGQTEDAEPISEPEKVETGSEPGDTEPLELGGPGAEPEQKEQSTGQKRPLKNDEL
Regarding B1, the binding entry in assay [5], in assay [6] and in assay [7] was “binds” each time.

B2: ERdj5 (mouse) (protein, UniProt Q9DC23 33-793)
chain: DQNFYSLLGVSKTASSREIRQAFKKLALKLHPDKNPNNPNAHGDFLKINRAYEVLKDEDLRKKYDKYGEKGLEDNQGGQYESWSYYRYDFGIYDDDPEIITLERREFDAAVNSGELWFVNFYSPGCSHCHDLAPTWREFAKEVDGLLRIGAVNCGDDRMLCRMKGVNSYPSLFIFRSGMAAVKYNGDRSKESLVAFAMQHVRSTVTELSTGNFVNAIETAFAAGVGWLITFCSKGEDCLTSQTRLRLSGMLDGLVNVGWVDCDAQDSLCKSLDTTASTTAYFPPGATLNDREKSSVLFLNSLDAKEIYMEIIHNLPDFELLSANQLEDRLAHHRWLVFFHFGKNENANDPELKKLKTLLKNEHIQVGRFDCSSAPGICSDLYVFQPCLAVFKGQGTKEYEIHHGKKILYDILAFAKESVNSHVTTLGPQNFPASDKEPWLVDFFAPWCPPCRALLPELRKASTLLYGQLKVGTLDCTIHEGLCNMYNIQAYPTTVVFNQSSIHEYEGHHSAEQILEFIEDLRNPSVVSLTPSTFNELVKQRKHDEVWMVDFYSPWCHPCQVLMPEWKRMARTLTGLINVGSVDCQQYHSFCTQENVQRYPEIRFYPQKSSKAYQYHSYNGWNRDAYSLRSWGLGFLPQASIDLTPQTFNEKVLQGKTHWVVDFYAPWCGPCQNFAPEFELLARMIKGKVRAGKVDCQAYPQTCQKAGIKAYPSVKLYQYERAKKSIWEEQINSRDAKTIAALIYGKLETLQSQVKRNKDEL
As for B2, the binding result in assay [5], in assay [6] and in assay [7] was “binds” throughout.

Source of the values: paper PMC8983781.
